Reference: patent US8334238B2, “Multiparameter FACS assays to detect alterations in cellular parameters and to screen small molecule libraries” (Rigel, Inc., priority 1998, dated 2012)
At least one structure is not confirmed: it was looked up by name or label, or the drawing left a doubt.

System: MC-9 cells
Assay: Styryl dye (FM 1-43 / FM 4-64) uptake exocytosis assay by FACS
Type: cell-based
Conditions: MC-9 cells preincubated with 1 μM, 100 nM, 10 nM, 0 nM before A23187 0.5 ug/ml
Protocol: Experiments were carried out in modified tyrodes buffer (MD which consisted of NaCl (137 mM), KCl (2.7 mM), CaCl2 (1.8 mM), MgCl2 (1 mM), Glucose (5.6 mM), Hepes (20 mM, pH 7.4), and bovine serum albumin (0.1%). MC-9 cells were spun at 400×g and the media was aspirated. The cells were then washed with MT, respun/aspirated and taken up in MT at a density of 5×10^6 cells/ml. Cells were then treated with either DMSO or ionophore for 30 minutes (or the time was varied if a timecourse). The cells were then pelleted with the supernatant collected for enzymatic analysis; in some cases, the cells then processed for flow cytometry. All stimulations were carried out at 37° C. Stimulations of RBL-2H3 cells were carried out by washing the adherent cells one time in MT and then adding warmed MT (1 ml/10^6 cells) containing the stimulus. The cells were incubated at 37° C. for 30 minutes and the supernatant was harvested for further analysis. In some of the examples, (Examples 4-6), the plate bound cells were stained for annexin and then removed from the flask using No-Zyme (Collaborative Research, Inc.) for further processing for flow cytometry. […]
The cells were prepared as described above. […] The cells were then ready for analysis in the flow cytometer (see Example 2).

COC[C@H]1OC(=O)c2coc3c2[C@@]1(C)C1=C(C3=O)[C@@H]2CCC(=O)[C@@]2(C)C[C@H]1OC(C)=O [Wortmannin, wortmannin]
FM 1-43 signal (mean channel shift, fluorescence channel 1): dose dependent decrease
